Measured data: PubChem BioAssay AID686938 (Drosophila RNAi Screening Center, 2013)

Purpose: 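Looking for CRAC channel components and the factors controlling them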 (primary screen)
Cells: Drosophila S2R+ cells
Knock-down reagent: long dsRNA against Drosophila genes, about 0.25 µg dsRNA per well, roughly 10,000 cells
Timing: 5 days of knock-down before the calcium assay
Treatment: thapsigargin (SERCA pump blocker) to empty calcium stores; entry signal taken 4 min after adding it
Measurement: 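Per-well fluo-4 fluorescence in two replicates, unnormalised, measured in resting cells and 4 min after store depletion by the SERCA blocker thapsigargin; ratio of the two present in few wells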
Direction: calcium entry signal: higher = stronger calcium signal after store depletion; resting calcium signal: higher = higher resting calcium signal
Hit rule: 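Called when the plate z-score of the entry-to-rest ratio, mean of duplicates, falls below −3; wells with low overall dye signal (Fmax z below −2) or more than five off-targets excluded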
Calls: active = strongly reduced calcium entry; inactive = no strong reduction
The screen tested about 23,000 reagents; below is a random part of those with a known target gene and a result. Over the whole deposit, 75 (0.33%) were called active. 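Raw plate signals without normalisation; calls rest on plate z-scores that were not deposited; ratio present for only 364 wells.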 A plus sign joins genes that one reagent is predicted to hit. Not stated in the record: the dose of the treatment.

CG3916 [DRSC15520] | calcium entry signal, replicate 1 (fluorescence units): 3.48e7; calcium entry signal, replicate 2 (fluorescence units): 2.42e7; resting calcium signal, replicate 1 (fluorescence units): 1.76e7; resting calcium signal, replicate 2 (fluorescence units): 1.38e7; call: inactive
geminin [DRSC04984] | calcium entry signal, replicate 1 (fluorescence units): 4.05e7; calcium entry signal, replicate 2 (fluorescence units): 3.54e7; resting calcium signal, replicate 1 (fluorescence units): 2.52e7; resting calcium signal, replicate 2 (fluorescence units): 2.17e7; call: inactive
CG5614 [DRSC15845] | calcium entry signal, replicate 1 (fluorescence units): 3.63e7; calcium entry signal, replicate 2 (fluorescence units): 5.16e7; resting calcium signal, replicate 1 (fluorescence units): 1.63e7; resting calcium signal, replicate 2 (fluorescence units): 2.40e7; call: inactive
Ada1-1 + Ada1-2 [DRSC01220] | calcium entry signal, replicate 1 (fluorescence units): 5.63e7; calcium entry signal, replicate 2 (fluorescence units): 3.37e7; resting calcium signal, replicate 1 (fluorescence units): 2.79e7; resting calcium signal, replicate 2 (fluorescence units): 1.69e7; call: inactive
Ada1-1 + Ada1-2 [DRSC01222] | calcium entry signal, replicate 1 (fluorescence units): 4.43e7; calcium entry signal, replicate 2 (fluorescence units): 3.52e7; resting calcium signal, replicate 1 (fluorescence units): 2.31e7; resting calcium signal, replicate 2 (fluorescence units): 1.82e7; call: inactive
Ptp61F (Protein tyrosine phosphatase 61F) [DRSC08683] | calcium entry signal, replicate 1 (fluorescence units): 3.74e7; calcium entry signal, replicate 2 (fluorescence units): 5.48e7; resting calcium signal, replicate 1 (fluorescence units): 2.09e7; resting calcium signal, replicate 2 (fluorescence units): 2.79e7; call: inactive
CG42246 [DRSC17520] | calcium entry signal, replicate 1 (fluorescence units): 3.02e7; calcium entry signal, replicate 2 (fluorescence units): 4.13e7; resting calcium signal, replicate 1 (fluorescence units): 1.40e7; resting calcium signal, replicate 2 (fluorescence units): 1.73e7; call: inactive
CG13931 [DRSC08400] | calcium entry signal, replicate 1 (fluorescence units): 4.34e7; calcium entry signal, replicate 2 (fluorescence units): 4.65e7; resting calcium signal, replicate 1 (fluorescence units): 2.30e7; resting calcium signal, replicate 2 (fluorescence units): 2.21e7; call: inactive
CG10339 [DRSC04065] | calcium entry signal, replicate 1 (fluorescence units): 3.10e7; calcium entry signal, replicate 2 (fluorescence units): 4.29e7; resting calcium signal, replicate 1 (fluorescence units): 1.72e7; resting calcium signal, replicate 2 (fluorescence units): 1.93e7; call: inactive
CG32163 [DRSC09442] | calcium entry signal, replicate 1 (fluorescence units): 5.59e7; calcium entry signal, replicate 2 (fluorescence units): 4.30e7; resting calcium signal, replicate 1 (fluorescence units): 2.54e7; resting calcium signal, replicate 2 (fluorescence units): 2.03e7; call: inactive
CG32163 [DRSC21888] | calcium entry signal, replicate 1 (fluorescence units): 2.66e7; calcium entry signal, replicate 2 (fluorescence units): 2.91e7; resting calcium signal, replicate 1 (fluorescence units): 1.25e7; resting calcium signal, replicate 2 (fluorescence units): 1.46e7; call: inactive
CG34198 [DRSC05803] | calcium entry signal, replicate 1 (fluorescence units): 2.72e7; calcium entry signal, replicate 2 (fluorescence units): 3.14e7; resting calcium signal, replicate 1 (fluorescence units): 1.37e7; resting calcium signal, replicate 2 (fluorescence units): 1.58e7; call: inactive
CG4577 [DRSC00658] | calcium entry signal, replicate 1 (fluorescence units): 3.25e7; calcium entry signal, replicate 2 (fluorescence units): 2.96e7; resting calcium signal, replicate 1 (fluorescence units): 1.64e7; resting calcium signal, replicate 2 (fluorescence units): 1.34e7; call: inactive
RpL10Ab (Ribosomal protein L10Ab) [DRSC10798] | calcium entry signal, replicate 1 (fluorescence units): 1.28e7; calcium entry signal, replicate 2 (fluorescence units): 1.07e7; resting calcium signal, replicate 1 (fluorescence units): 9.61e6; resting calcium signal, replicate 2 (fluorescence units): 8.34e6; call: inactive

2 entries from above, showing only “resting calcium signal, replicate 1 (fluorescence units)”.
Ada1-1 + Ada1-2 [DRSC01220] = 2.79e7
Ada1-1 + Ada1-2 [DRSC01222] = 2.31e7
